doi:10.1101/2023.03.09.531914
No constants are given. Whether binding was seen depends on the method and setting. Binding seen in cells or lysates may run through a third protein. Some binding calls cover weakened binding; strength is not graded here. For some assays here: Tags and fused reporters may be left off the sequences shown.

The chains behind the UniProt entries cited, without tags or fusion partners. Where a name states a change or a piece, a line headed by the entry shows the natural chain unless it says otherwise.
UniProt O75152, whole entry: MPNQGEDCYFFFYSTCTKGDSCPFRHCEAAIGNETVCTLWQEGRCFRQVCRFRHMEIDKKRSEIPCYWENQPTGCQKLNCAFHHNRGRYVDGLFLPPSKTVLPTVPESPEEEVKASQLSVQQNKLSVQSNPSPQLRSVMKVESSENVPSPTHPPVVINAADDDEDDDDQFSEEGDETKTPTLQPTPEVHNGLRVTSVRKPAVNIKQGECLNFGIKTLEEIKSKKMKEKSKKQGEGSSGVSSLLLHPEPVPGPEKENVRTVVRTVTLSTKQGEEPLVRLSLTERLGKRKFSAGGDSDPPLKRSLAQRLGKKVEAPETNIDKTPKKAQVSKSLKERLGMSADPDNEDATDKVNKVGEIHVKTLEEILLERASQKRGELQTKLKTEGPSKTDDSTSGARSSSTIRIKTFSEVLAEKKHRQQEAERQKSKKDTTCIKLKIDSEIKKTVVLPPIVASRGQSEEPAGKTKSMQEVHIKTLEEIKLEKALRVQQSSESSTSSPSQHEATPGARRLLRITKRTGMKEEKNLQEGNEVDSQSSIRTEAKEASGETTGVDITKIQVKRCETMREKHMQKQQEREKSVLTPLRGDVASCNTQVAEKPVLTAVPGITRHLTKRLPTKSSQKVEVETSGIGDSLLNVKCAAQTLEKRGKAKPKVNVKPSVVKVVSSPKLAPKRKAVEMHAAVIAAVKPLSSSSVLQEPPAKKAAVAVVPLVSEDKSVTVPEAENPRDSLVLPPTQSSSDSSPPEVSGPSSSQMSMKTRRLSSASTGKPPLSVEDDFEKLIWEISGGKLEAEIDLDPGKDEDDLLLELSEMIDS
UniProt O00505, whole entry: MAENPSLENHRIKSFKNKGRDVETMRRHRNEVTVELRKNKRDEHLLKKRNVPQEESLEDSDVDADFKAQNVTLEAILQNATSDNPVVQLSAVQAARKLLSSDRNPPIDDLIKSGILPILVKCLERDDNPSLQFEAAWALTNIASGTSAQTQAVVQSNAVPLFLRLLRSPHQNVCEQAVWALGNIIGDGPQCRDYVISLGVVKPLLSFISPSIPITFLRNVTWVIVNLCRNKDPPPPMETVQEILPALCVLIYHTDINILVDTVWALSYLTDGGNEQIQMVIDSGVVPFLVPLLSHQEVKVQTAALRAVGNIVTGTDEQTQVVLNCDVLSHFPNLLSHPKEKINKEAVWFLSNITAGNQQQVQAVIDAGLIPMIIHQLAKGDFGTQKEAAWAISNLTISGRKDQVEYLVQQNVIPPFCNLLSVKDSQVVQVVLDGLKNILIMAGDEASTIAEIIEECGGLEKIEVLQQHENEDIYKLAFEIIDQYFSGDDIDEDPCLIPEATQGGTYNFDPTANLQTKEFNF

Assays:
Assay in all cases: co-IP
[1] = target: ZC3H11A(KR5>A/Δ661-699)-Flag (human) (UniProt O75152)
[2] = target: ZC3H11A(wt)-Flag (expressed in HeLa cells) (human) (UniProt O75152)
PABPN1-Flag = target: T1, PABPN1-Flag (UniProt Q86U42)
T1 sequence: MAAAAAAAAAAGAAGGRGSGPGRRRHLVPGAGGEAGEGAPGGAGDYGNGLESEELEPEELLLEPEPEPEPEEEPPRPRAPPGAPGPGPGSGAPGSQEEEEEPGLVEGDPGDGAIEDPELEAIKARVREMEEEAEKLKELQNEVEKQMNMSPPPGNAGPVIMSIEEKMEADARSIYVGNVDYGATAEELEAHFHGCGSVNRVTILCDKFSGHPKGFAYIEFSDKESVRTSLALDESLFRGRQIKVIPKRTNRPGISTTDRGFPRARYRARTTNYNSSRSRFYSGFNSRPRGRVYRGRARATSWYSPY

[3] = target: ZC3H11A(3C>A)-Flag (human) (UniProt O75152)
[4] = target: ZC3H11A(wt)-Flag (expressed in HEK293T cells) (human) (UniProt O75152)

For “KPNA3 (endogenous, HeLa cells) (from UniProt O00505 1-521)”, the binding [1] was “no binding” and the binding [2] was “binds”.

For “ZC3H11A(3C>A)-HA (from UniProt O75152 1-810)”, the binding (PABPN1-Flag) was “no binding”.

In the case of “ZC3H11A(C8A)-HA (from UniProt O75152 1-810)”, the binding (PABPN1-Flag) is reported as “no binding”.

With “ZC3H11A(C37A)-HA (from UniProt O75152 1-810)” the binding (PABPN1-Flag) was “binds”.

For “ZC3H11A(C66A)-HA (from UniProt O75152 1-810)”, the binding (PABPN1-Flag) was “no binding”.

With “ZC3H11A(wt)-HA (from UniProt O75152 1-810)” the binding (PABPN1-Flag) was “binds”.

B1: THOC1-HA (protein, UniProt Q96FV9 1-657)
chain: MSPTPPLFSLPEARTRFTKSTREALNNKNIKPLLSTFSQVPGSENEKKCTLDQAFRGILEEEIINHSSCENVLAIISLAIGGVTEGICTASTPFVLLGDVLDCLPLDQCDTIFTFVEKNVATWKSNTFYSAGKNYLLRMCNDLLRRLSKSQNTVFCGRIQLFLARLFPLSEKSGLNLQSQFNLENVTVFNTNEQESTLGQKHTEDREEGMDVEEGEMGDEEAPTTCSIPIDYNLYRKFWSLQDYFRNPVQCYEKISWKTFLKYSEEVLAVFKSYKLDDTQASRKKMEELKTGGEHVYFAKFLTSEKLMDLQLSDSNFRRHILLQYLILFQYLKGQVKFKSSNYVLTDEQSLWIEDTTKSVYQLLSENPPDGERFSKMVEHILNTEENWNSWKNEGCPSFVKERTSDTKPTRIIRKRTAPEDFLGKGPTKKILMGNEELTRLWNLCPDNMEACKSETREHMPTLEEFFEEAIEQADPENMVENEYKAVNNSNYGWRALRLLARRSPHFFQPTNQQFKSLPEYLENMVIKLAKELPPPSEEIKTGEDEDEEDNDALLKENESPDVRRDKPVTGEQIEVFANKLGEQWKILAPYLEMKDSEIRQIECDSEDMKMRAKQLLVAWQDQEGVHATPENLINALNKSGLSDLAESLTNDNETNS
With B1 the binding [3] was “binds” and the binding [4] was “binds”.

B2: THOC5-HA (protein, UniProt Q13769 1-683)
chain: MSSESSKKRKPKVIRSDGAPAEGKRNRSDTEQEGKYYSEEAEVDLRDPGRDYELYKYTCQELQRLMAEIQDLKSRGGKDVAIEIEERRIQSCVHFMTLKKLNRLAHIRLKKGRDQTHEAKQKVDAYHLQLQNLLYEVMHLQKEITKCLEFKSKHEEIDLVSLEEFYKEAPPDISKAEVTMGDPHQQTLARLDWELEQRKRLAEKYRECLSNKEKILKEIEVKKEYLSSLQPRLNSIMQASLPVQEYLFMPFDQAHKQYETARHLPPPLYVLFVQATAYGQACDKTLSVAIEGSVDEAKALFKPPEDSQDDESDSDAEEEQTTKRRRPTLGVQLDDKRKEMLKRHPLSVMLDLKCKDDSVLHLTFYYLMNLNIMTVKAKVTTAMELITPISAGDLLSPDSVLSCLYPGDHGKKTPNPANQYQFDKVGILTLSDYVLELGHPYLWVQKLGGLHFPKEQPQQTVIADHSLSASHMETTMKLLKTRVQSRLALHKQFASLEHGIVPVTSDCQYLFPAKVVSRLVKWVTVAHEDYMELHFTKDIVDAGLAGDTNLYYMALIERGTAKLQAAVVLNPGYSSIPPVFQLCLNWKGEKTNSNDDNIRAMEGEVNVCYKELCGPWPSHQLLTNQLQRLCVLLDVYLETESHDDSVEGPKEFPQEKMCLRLFRGPSRMKPFKYNHPQGFFSHR
In the case of B2, the binding [3] is reported as “binds” and the binding [4] is reported as “binds”.
